The whole screen tested about 230,000 compounds, of which about 310 (0.13%) were called active. Another 2% or so got no clear call; they are omitted. Calls come from the whole dose curve; as a rule, active = well fitted activation curve with a large enough effect; inconclusive = small, poorly fitted or top-dose-only effect; inactive = no such curve, though single readings can be large or run the other way. The entries are a selection whose mix differs from that of the whole data set. The source gives no active or inactive call for entries shown without one. Some structures have more than one record in an assay (separate samples or runs), and their calls can disagree.
Potency is the fitted concentration of half-maximal effect.

The assay in a line: qHTS Multiplex Assay to Identify Dual Action Probes in a Cell Model of Huntington: Cytoprotection (ATP).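 For cytoprotection (ATP increase): toxic huntingtin expression switched on by the ecdysone agonist tebufenozide; % of control where 0% means no effect.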 Note: nearly all actives have a fitted effect of over 45% in size. Particulars: PC12 HTT-Q103 induced, ATP luminescence, 40 h; cytoprotection (ATP increase): at 56.4 µM (top of the series) unless noted. The essentials:
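Cells were plated at 1500 per well in phenol red-free DMEM with 5% equine and 5% calf serum. Tebufenozide (100 nM final) and compounds were added, then ATPlite reagent, and luminescence was read.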
(In general: Quantitative high-throughput screening tests each substance at several concentrations.)
`C[C@]12CCC3c4ccc(O)cc4CCC3C1CCC2OC(=O)CCC1CCCC1` (stereo partly drawn): the cytoprotection (ATP increase) was -41.5%. `CC(=O)NC(CCS(C)(=O)=O)C(=O)Nc1ccc2c(c1)OCO2` (stereo not drawn): the cytoprotection (ATP increase) was found to be 306% [at 10 µM]. `Cc1ccc(S(=O)(=O)CC2CSc3nc4ccccc4n32)cc1` (stereo not drawn): the Potency was active: 3.98 µM. As for `CC(C)=CCOc1cc2oc(=O)ccc2cc1O`, the cytoprotection (ATP increase) was -97%.

Turning to `Cc1cccc([C@H]2[C@@H]3C=CC(C)C[C@@H]3C(=O)N2Cc2ccccc2)c1` (stereo partly drawn), the cytoprotection (ATP increase) was -197%. `CCOC(=O)[C@H](CCc1ccccc1)N[C@@H](C)C(=O)N1[C@H](C(=O)O)C[C@H]2CCC[C@@H]21`: the Potency is active: 3.16 µM. Turning to `CCN(C(=O)COC(=O)c1ccccc1NC(=O)c1ccco1)C1CCS(=O)(=O)C1` (stereo not drawn), the cytoprotection (ATP increase) was -32.2%. Regarding `Cc1cc(N/N=C/c2ccc(Cl)cc2)nc(NCc2ccccc2)n1`, the cytoprotection (ATP increase) stood at 289% [at 1.9 µM]. For `O=C(CSc1ncnc2c1nnn2Cc1ccc(F)cc1)NC1CCCC1`, the Potency is active: 1.26 µM. Regarding `NCCCCCc1cnc[nH]1`, the Potency is active: 0.794 µM. With `CC(C)(C)CC(C)(C)c1ccc(OCCOCC[N+](C)(C)Cc2ccccc2)cc1`, the cytoprotection (ATP increase) is -95.6%. Same read-out and setting: the figure for `Cc1[nH]n(-c2ccccc2)c(=O)c1N=O` is 464% [at 10 µM].

For `COc1cccc(-c2cncnc2NCCc2c[nH]c3ccc(OC)cc23)c1`, the Potency is active: 3.16 µM. With `C=C(C(C)=O)C(O)c1ccco1` (stereo not drawn), the cytoprotection (ATP increase) is -58%. Same read-out and setting: the figure for `C[C@H]1C(c2cccc(Cl)c2)=NN(c2ccccc2)[C@@H]1CO` is -121%; for `CC1COC2=C1C(=O)C(=O)c1c2ccc2c1CCCC2(C)C` (stereo not drawn) it is -40.6%; for `Cc1cccc(C)c1NC(=O)C1(NC(=O)Cn2cccc([N+](=O)[O-])c2=O)CCCCC1` it is 165% [at 10 µM]. On to `O=C(Nc1ccccc1)N1CCC2(CC1)CCN(C(=O)c1cnccn1)CC2`, for which the Potency was active: 3.55 µM. In the case of `COC(=O)[C@@]1(Cc2ccccc2-c2ccco2)C=C[C@H](C)[C@@H](c2ccccc2)N1C(=O)C(F)(F)F`, the Potency was active: 10 µM. For the compound `CC1=CCc2c(cc3oc(C)cc(=O)c3c2O)OC1`, the cytoprotection (ATP increase) was -53.4%. In the case of `NNC(=O)c1ccncc1`, the cytoprotection (ATP increase) is -35.1%. As for `CCCCNS(=O)(=O)c1ccc(S(=O)(=O)NCc2ccncc2)cc1`, the cytoprotection (ATP increase) stood at 360% [at 1.9 µM]. Consider `O=C(Nc1nccs1)C(c1ccccc1)N1CCCC1` (stereo not drawn), for which the Potency is active: 1.41 µM. For the compound `CCN(C(=O)CC(C)C)c1nnc(Cn2nnc3ccccc32)s1`, the Potency is active: 0.891 µM.

Consider `CCOC(=O)c1sc(NC(=O)c2ccc(S(=O)(=O)N3CCCCCC3)cc2)nc1-c1ccccc1`, for which the cytoprotection (ATP increase) was 209% [at 10 µM].

For `FC(F)(F)c1cc(NC(=S)NC(c2ccccc2)c2ccccc2)cc(C(F)(F)F)c1`, the cytoprotection (ATP increase) is -195%. On the same count and under the same terms, the figure for `COC(=O)C1=C(C(=O)OC)[C@@H]2N(C)c3ccc(OC)cc3[C@@]23C[C@@H](C(=O)OC)N(C(C)=O)C3=N1` is 44.4% [at 10 µM]; for `Cc1ccc(-n2nnc3c(=O)n(CC(=O)OCc4ccccc4)cnc32)cc1` it is 352% [at 10 µM].

Turning to `O=C1C2C3C=CC(C3)C2C(=O)N1CCCO` (stereo not drawn), the cytoprotection (ATP increase) came to 309% [at 10 µM]. Still for that read-out and setting: the figure for `CC(=O)c1ccc(NC(=O)Nc2ncn(Cc3cccc(C)c3)n2)cc1` is 302% [at 10 µM]. In the case of `O=C(c1ccccc1)c1ccccc1`, the cytoprotection (ATP increase) was -163%. On to `CCOC(=O)C1=C(C)N(C)C(=S)NC1c1ccc(Cl)cc1` (stereo not drawn), for which the cytoprotection (ATP increase) turned out to be 220% [at 10 µM]. `COc1ccc(C(=O)C(CN2CCOCC2)c2ccccc2)cc1` (stereo not drawn): the Potency was active: 22.4 µM.

As for `NCCCS(=O)(=O)O`, the cytoprotection (ATP increase) was -33%. Regarding `COc1ccc(/C=C2\CCCC(C(=O)C(F)(F)F)=C2O)cc1OC`, the cytoprotection (ATP increase) turned out to be 36.7%. As for `COc1ccccc1Cn1c(=O)c2ccccc2n2c(Sc3ncnc4sccc34)nnc12`, the Potency was active: 1.58 µM. Take `COc1cccc([C@@H]2Oc3ccc(OC)cc3C(=O)[C@H]2OC(=O)NC2CCCC2)c1`: the cytoprotection (ATP increase) is -48.5%. For the compound `C1CCC(NC(=NC2C3CC4CC(C3)CC2C4)N2CCOCC2)CC1` (stereo not drawn), the cytoprotection (ATP increase) was -55.1%.

`CCCCCSc1nnc(-c2ccccc2NC(C)=O)c(=O)[nH]1`: the Potency is active: 2.82 µM. Turning to `Cc1csc(NC(=O)[C@@H](NC(=O)c2ccccc2)C(C)C)n1`, the cytoprotection (ATP increase) amounted to 155% [at 10 µM].

As to `COc1ccc2[nH]c(-c3ccccc3)cc(=O)c2c1`, the cytoprotection (ATP increase) was -335% [at 96.6 µM]. For `Cc1ccccc1CN1CCN(CC(=O)NCc2ccccc2)C1=O`, the Potency is active: 4.47 µM. On to `CC(=O)N1CC[C@@H]2CC(=O)CC[C@@H]21`, for which the cytoprotection (ATP increase) is -39.4% [at 96.6 µM]. Consider `Cc1cccc(N2C(=O)CC(SC(=Nc3ccccc3)Nc3ccccc3)C2=O)c1` (stereo not drawn), for which the cytoprotection (ATP increase) was determined as 106% [at 10 µM]. For the compound `CCOC(=O)N1CCC(N2CCCC(CO)(Cc3cccc(OC)c3)C2)CC1` (stereo not drawn), the cytoprotection (ATP increase) was 488% [at 10 µM]. As to `O=C(O)/C=C/C(O)c1ccc(Cl)cc1` (stereo not drawn), the Potency is active: 3.16 µM. Same read-out and setting: the figure for `O=C(Nc1cccnc1)Nc1ccccc1Cl` is active: 0.794 µM. With `Cc1ccccc1CNC(=O)c1ccccc1C(=O)O`, the cytoprotection (ATP increase) turned out to be 280% [at 1.9 µM]. Same read-out and setting: with `Cc1cc2c(cc1Cl)C(c1ccccc1C)CC(=O)O2` (stereo not drawn) the figure was -31.1%; with `COc1cc(CNC(=O)CCCC/C=C/C(C)C)ccc1O`, -54.3%; with `COc1ccc2c(c1)C(=O)[C@@H](OC(=O)N[C@H](C)C1CCCCC1)[C@H](c1ccc(OC)c(Br)c1)O2`, -2.69%. As for `CC(C)c1ccccc1S(=O)(=O)c1cc(N)c2ncccc2c1[N+](=O)[O-]`, the Potency was active: 7.94 µM. Take `COCCCNS(=O)(=O)c1ccc2[nH]c(=O)[nH]c2c1`: the cytoprotection (ATP increase) came to 366% [at 10 µM]. Regarding `COc1ccc(C2/C=C\CC(NC(=O)OCC3c4ccccc4-c4ccccc43)CC(=O)N2Cc2ccccc2F)cc1` (stereo not drawn), the cytoprotection (ATP increase) is -44.1% [at 40.3 µM].

On to `O=C1c2ccccc2C(=O)c2c(O)c(O)cc(O)c21`, for which the cytoprotection (ATP increase) is -30.1%. With `CCCN(CCC)S(=O)(=O)c1ccc(C(=O)Nc2nc3c(s2)CCc2ccccc2-3)cc1`, the cytoprotection (ATP increase) was found to be 200% [at 10 µM].

`O=C(NN1C(=O)c2ccccc2NC1c1ccc([N+](=O)[O-])o1)c1ccc(Br)cc1` (stereo not drawn): the Potency is active: 6.31 µM.

Take `C=CCOC(=O)N[C@H](/C(C(=O)OC)=C(\C)NCc1ccccc1)c1cccc(F)c1`: the cytoprotection (ATP increase) was 32.6%. For `O=C(CN1C(=O)COc2ccccc21)NCCN1CCC(Cc2ccccc2)CC1`, the cytoprotection (ATP increase) was determined as 216% [at 10 µM].

Regarding `Cc1cc(C)nc(NS(=O)(=O)c2ccc(N)cc2)n1`, the cytoprotection (ATP increase) was -57.1%. `CC(C(O)c1ccc(O)cc1)N1CCC(Cc2ccccc2)CC1` (stereo not drawn): the Potency is active: 5.01 µM. As for `Cc1cc2oc(=O)cc(-c3ccccc3)c2c(C)c1-c1ccc(N(C)C)cc1`, the cytoprotection (ATP increase) is -72.9%. For the compound `CN([C@@H](Cc1ccc(OS(=O)(=O)c2cccc3cnccc23)cc1)C(=O)N1CCN(c2ccccc2)CC1)S(=O)(=O)c1cccc2cnccc12`, the cytoprotection (ATP increase) was -108%. `Cn1cc(C2=C(c3cn(CCCSC(=N)N)c4ccccc34)C(=O)NC2=O)c2ccccc21`: the cytoprotection (ATP increase) was -68%. For `CC1O[C@@H](O[C@@H]2C(O)C[C@H](O[C@@H]3C(O)C[C@@H](OC4CC[C@@]5(C)C6CC[C@]7(C)C(C8=CC(=O)OC8)CC[C@@]7(O)C6CC[C@@H]5C4)OC3C)OC2C)CC(O)[C@H]1O` (stereo partly drawn), the cytoprotection (ATP increase) was -32.5%. For `COc1cccc([C@@H]2Oc3ccc(Br)cc3C(=O)[C@H]2OC(=O)NC2CCCC2)c1`, the cytoprotection (ATP increase) is 58%. In the case of `COc1cccc(-c2cc(C(F)(F)F)nc(NCc3ccco3)n2)c1`, the cytoprotection (ATP increase) stood at 336% [at 10 µM]. On to `COC(=O)/C=C/c1ccc(OC(=O)OC)c(OC(=O)OC)c1`, for which the cytoprotection (ATP increase) is 183% [at 10 µM]. As for `Cc1ccc2cccc(OC(=O)/C=C\c3ccccc3)c2n1`, the Potency is active: 3.16 µM. As to `Nc1ccc2oc(-c3ccccc3Cl)cc(=O)c2c1O`, the cytoprotection (ATP increase) was -47.3%. In the case of `COc1cccc([C@@H]2Oc3ccc(Br)cc3C(=O)[C@H]2OC(=O)Nc2ccc(OC(F)F)cc2)c1`, the cytoprotection (ATP increase) is -20%.

On to `C=C1C(=O)OC2CC1C(OC(C)=O)CC(C)=CCCC(C)=CCC[C@@]2(C)O` (stereo partly drawn), for which the cytoprotection (ATP increase) is -304%. Regarding `COc1ccc(-c2cc(=O)c3ccccc3[nH]2)cc1`, the cytoprotection (ATP increase) was -64.3% [at 96.6 µM].

Turning to `COc1ccc2c(c1)c(CC(=O)OCC(=O)O)c(C)n2C(=O)c1ccc(Cl)cc1`, the cytoprotection (ATP increase) is -43.3%. As to `CCn1c(-c2ccoc2C)n[nH]c1=S`, the Potency is active: 5.62 µM. As to `CC(C)(S)[C@H](N)C(=O)O`, the cytoprotection (ATP increase) is -39.5%. In the case of `O=C(Nc1nc2ccc(F)cc2s1)c1cccc(S(=O)(=O)N2CCc3ccccc32)c1`, the cytoprotection (ATP increase) is 219% [at 10 µM]. Consider `COc1cc(OC)c2c(-c3cccc(-c4cccc(N)c4)c3)cc(=O)oc2c1`, for which the cytoprotection (ATP increase) was -209%. Turning to `Cc1ccc(S(=O)(=O)N2C(=O)/C(=C3\SC(=S)NC3=O)c3ccccc32)cc1`, the cytoprotection (ATP increase) stood at 193% [at 10 µM]. `O=C(O)CCCCC1SCC2NC(=O)NC21` (stereo not drawn): the Potency was active: 12.6 µM. Turning to `c1ccc(CN(CCN(Cc2ccccn2)Cc2ccccn2)Cc2ccccn2)nc1`, the cytoprotection (ATP increase) was -150%. As for `COc1ccc(C(=O)C(CN2CCOCC2)c2ccccc2)cc1F` (stereo not drawn), the Potency is active: 3.16 µM.

For `COc1ccc(N2CCN(C(=O)CNS(=O)(=O)c3ccc(C)cc3)CC2)cc1`, the cytoprotection (ATP increase) was 39.2%. Same read-out and setting: with `Cn1c(-c2nc(-c3ccccc3)cs2)nc2ccccc21` the figure was 34.8% [at 1.9 µM]; with `CCOC(=O)c1ccc(N2CN(CCc3ccccc3)CNC2=S)cc1`, 236% [at 10 µM]; with `O=C1NC(=O)c2cc(Nc3ccc(F)cc3)c(Nc3ccc(F)cc3)cc21`, -148%. Regarding `Cc1cccc([C@H]2[C@@H]3C=CC[C@@H](C)[C@@H]3C(=O)N2Cc2ccccc2)c1`, the cytoprotection (ATP increase) was -105%. On to `C=CCc1ccc(O)c(-c2cc(CC=C)ccc2O)c1`, for which the cytoprotection (ATP increase) is -124%. With `N[C@H](CSC(c1ccccc1)(c1ccccc1)c1ccccc1)C(=O)O`, the cytoprotection (ATP increase) is -81.8%. Take `COc1ccc(-c2nc(-c3ccccc3)no2)c(OC)c1`: the Potency is active: 5.62 µM. For the compound `O=C(CCCN1CCC(O)(c2ccc(Cl)cc2)CC1)c1ccc(F)cc1`, the cytoprotection (ATP increase) is -63.2%. Consider `COC(=O)c1c(C)c2c(c(C)c1O)OC(=O)c1c(C)c(Cl)c(O)c(Cl)c1O2`, for which the cytoprotection (ATP increase) was -30.8%. Take `Nc1c(S(=O)(=O)c2cccs2)c2nc3ccccc3nc2n1CC1CCCO1` (stereo not drawn): the cytoprotection (ATP increase) is 28.6% [at 10 µM].

The record behind these values is PubChem BioAssay AID1471 (National Center for Advancing Translational Sciences (NCATS), 2008).
